## Library compounds against nucleic acid targets

Targets, with sequences 5′ to 3′:
T1: PreQ1 riboswitch RNA pseudoknot, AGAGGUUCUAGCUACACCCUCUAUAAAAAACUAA. From B. subtilis. About 24,000 compounds screened, about 170 hits.
T2: TPP riboswitch RNA three-way junction, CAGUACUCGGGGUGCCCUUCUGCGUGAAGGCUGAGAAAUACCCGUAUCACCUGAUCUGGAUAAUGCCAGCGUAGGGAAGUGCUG. About 24,000 compounds screened, about 160 hits.
T3: SAM-II riboswitch RNA pseudoknot, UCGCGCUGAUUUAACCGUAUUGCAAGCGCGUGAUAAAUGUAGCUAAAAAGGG. About 21,000 compounds screened, about 200 hits.

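Each compound is printed as two spots on a slide made to bind it covalently, so it has no test concentration; the read-out is fluorescence of the bound, labelled oligonucleotide. The data file lists only calls. An earlier report of the laboratory on the PreQ1, TPP and SAM-II riboswitches (doi:10.1038/s41467-019-09493-3) used 1 µM RNA for 2 h and required a mean Z-score above 3 (spot signal-to-noise against the whole library), a score well above that on a control array, and duplicate spots agreeing (coefficient of variation under 100); it then also set aside compounds that hit other targets, which this list keeps. The cut-offs behind this list may differ. A missing hit is not proof of no binding, and a hit is not a measured affinity.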
Key: Y = hit, N = tested without a hit.
This is an unselected part of the compounds tested.
A target missing from an entry has no call listed here.
A dash means that no call is listed here.

| compound | T1 | T2 | T3 |
|---|---|---|---|
| `CC(O)CCC(=O)NCCc1nc2ccccc2n1Cc1c(F)cccc1Cl` (stereo not drawn) | N | N | - |
| `CCc1ccc(Nc2ncnc3c2nc2n3CCCCC2)cc1` | N | N | - |
| `COc1ccc(CCNCc2ccccc2C)cc1OC` | N | N | N |
| `Cc1cn2c3ccccc3nc2n1CCO` | N | N | N |
| `O=C(Nc1cccc2c1CCCC2)N1CCN(Cc2ccccc2)CC1CO` (stereo not drawn) | N | N | N |
| `Nc1cccc2[nH]c(=O)c(=O)[nH]c12` | N | N | N |
| `Cc1ccc(C(=O)c2c(N)c(C(=O)Nc3cccc(F)c3)c3ccccn23)cc1C` | Y | Y | - |
| `Nc1ccn(C[C@@H](CO)OCP(=O)(O)O)c(=O)n1` | N | N | N |
| `CNC(=O)[C@@H]1C[C@H](N)CN1C(=O)c1ccc(CSc2ncccn2)o1` | N | N | N |
| `COc1cc(NC(=O)c2ccc(-c3ccc(Cl)cc3)o2)cc(OC)c1` | N | N | N |
| `COc1ccccc1OC1CCN(C(=O)CCc2csc(N)n2)CC1` | N | N | N |
| `CCOC(=O)C1CCN(c2c(Nc3cccc(C)c3)c(=O)c2=O)CC1` | N | N | N |
| `COc1ccc(NC2c3ccccc3C(=O)N2c2ccccc2C)cc1` (stereo not drawn) | N | N | N |
| `O=C(CCN1Cc2ccccc2C1=O)NCc1cc2n(n1)CCCNC2` | N | N | N |
| `Cc1n[nH]c2c1C(c1cccc(F)c1)C(C#N)=C(N)O2` (stereo not drawn) | N | N | N |
| `CC(C)Nc1nc(N(c2ccccc2)c2ccccc2)nc(-n2ccnc2)n1` | N | N | N |
| `CCOc1cc(C2c3c(-c4ccccc4O)n[nH]c3C(=O)N2CCO)ccc1O` (stereo not drawn) | N | N | - |
| `Cc1ccccc1Nc1c(-c2ccncc2)nc2ccc(Cl)cn12` | N | N | N |
| `c1ccc(-c2nc[nH]c2-c2ccccc2)cc1` | N | N | N |
| `CCOc1ccc(-c2c(C)nn(C)c2N)cc1OCC` | N | N | N |
| `O=C(CCc1cc2n(n1)CCCNC2)N1CCCN([C@H]2COC[C@@H]2O)CC1` | N | N | N |
| `CC1(C)NC(=O)N(CC(O)CN(Cc2ccccc2)Cc2ccccc2)C1=O` (stereo not drawn) | N | N | N |
| `Nc1nnc(SCc2ccc(F)cc2)s1` | N | N | N |
| `Cc1nc(C(N)=O)nc2ccccc12` | N | N | N |
| `N#Cc1cnn2ccn(C3OC(CO)C(O)C3O)c12` (stereo not drawn) | N | N | N |
| `Nc1ccc2c(S(=O)(=O)[O-])cccc2c1S(=O)(=O)O.[Na+]` | N | N | N |
| `CCn1nc(C(=O)O)c2c1CCC(NCc1noc(C3CCCC3)n1)C2` (stereo not drawn) | N | N | N |
| `CC1(C)CC(=O)C2=C(C1)OC(N)=C(C#N)C2c1cccc(Cl)c1` (stereo not drawn) | N | N | N |
| `NC(N)=NC(N)=NCCc1ccccc1` | N | N | N |
| `NCc1oc(-c2ccccc2)cc1C(=O)O` | N | N | N |
| `NC1CCCCN(Cc2ccc(-c3cc[nH]n3)s2)C1` (stereo not drawn) | N | N | N |
| `COc1ccc(-n2ccnc2CN2CCOC(CN)C2)cc1` (stereo not drawn) | N | N | N |
| `c1ccc2c(c1)CC(Cc1ccc3c(c1)CNCC3)CO2` (stereo not drawn) | Y | Y | Y |
| `O=C(c1nccnc1C(=O)N1CCC2(CCCNC2)C1)N1CCCCC1` (stereo not drawn) | N | N | N |
| `COc1ccc(CCNc2oc(-c3ccccc3)nc2S(=O)(=O)c2ccccc2)cc1OC` | N | N | - |
| `Cc1nc2c(c(N3CC(Oc4ccccc4F)C3)n1)CCNCC2` | N | N | N |
| `CNc1oc(-c2ccc(S(=O)(=O)N3CCCC3)cc2)nc1C#N` | N | N | - |
| `CCn1c(NCc2ccco2)nc2c1c(=O)n(C)c(=O)n2C` | N | N | N |
| `COc1cc(F)c(CN2CCN(c3ncc(C#N)c(N)n3)CC2)c(F)c1` | N | N | N |
| `NC1=C(c2nc3ccccc3[nH]2)C(=O)CN1c1ccc(Br)cc1` | N | N | - |
| `Cc1ccc(C)c(N2CCN(C(=O)c3ccc(Nc4cc(C)nc5ncnn45)cc3)CC2)c1` | N | N | N |
| `O=C1c2cccc3cccc(c23)C(=O)N1CCCNCCO` | N | N | N |
| `CCOC(=O)c1c(N)n(Cc2cccc(OC)c2)c2nc3ccccc3nc12` | Y | N | N |
| `Cc1cccc(-c2nc(CNc3ncnc4c3CCNCC4)cs2)c1` | N | N | N |
| `OC1COC(OCc2ccccc2)C(O)C1O` (stereo not drawn) | N | N | N |
| `Cn1c(=O)c2[nH]c(COc3ccc(C(C)(C)C)cc3)nc2n(C)c1=O` | N | N | N |
| `COc1ccc(C(CN(C)C)C2(O)CCCCC2)cc1` (stereo not drawn) | N | N | N |
| `CCOC(=O)c1c[nH]c(SCC)nc1=O` | N | N | N |
| `O=C(NOCC(O)CO)c1cc(Br)c(F)c(F)c1Nc1ccc(I)cc1F` (stereo not drawn) | N | N | N |
| `CCCN1CCc2[nH]cnc2C12CCN(C(=O)CCc1n[nH]c(N)n1)CC2` | N | N | N |
| `CCOC(=O)c1cnn(-c2ccc(C(=O)Nc3cc(C)cc(C)c3)cn2)c1N` | N | N | N |
| `Nc1ccc(S(=O)(=O)NCCc2ccccc2)cc1` | N | N | N |
| `Cc1cccc(C)c1Nc1nc2ccccc2n2cnnc12` | N | N | N |
| `Cc1ncc2c(c1CNC(=O)Cc1cn3ccsc3n1)CCNC2` | N | N | N |
| `N[C@@H](Cc1ccc(O)cc1)C(=O)NCc1cccnc1Oc1ccccc1F` | N | N | N |
| `CC1CCc2c(sc(N)c2C(=O)Nc2cccc(Cl)c2)C1` (stereo not drawn) | N | N | N |
| `Cc1ccc(-c2nc3cc(N)ccc3o2)cc1Cl` | N | N | N |
| `COCCNCC(O)c1cccc(NC(=O)C(=O)NC(C)C)c1.Cl` (stereo not drawn) | N | N | N |
| `CCN(CC(O)c1cccc(O)c1)C(=O)c1ccc(-n2cccn2)cc1` (stereo not drawn) | N | N | N |
| `Nc1ncnc(Nc2ccc(F)cc2)n1` | N | N | N |

Repeated from the top, 4 entries:

- CC(O)CCC(=O)NCCc1nc2ccccc2n1Cc1c(F)cccc1Cl (stereo not drawn) | T1: N; T2: N
- CCc1ccc(Nc2ncnc3c2nc2n3CCCCC2)cc1 | T1: N; T2: N
- COc1ccc(CCNCc2ccccc2C)cc1OC | T1: N; T2: N; T3: N
- Cc1cn2c3ccccc3nc2n1CCO | T1: N; T2: N; T3: N

Calls as published in the ROBIN set (doi:10.1002/anie.202211358).